Data reported in patent US20240019450A1, “FLUORESCENT SENSORS” (THE UNIVERSITY OF SYDNEY, priority 2020, published 2024).
Some results were stated once for a whole list of compounds, not compound by compound. Some compounds share one range, which may span the group rather than tell each member.

Experiment: Fluorescence spectroscopy of the sensors (excitation and emission)
Type: physicochemical
Method: Fluorescence spectroscopy was performed on a bench top Perkin-Elmer Enspire Multimode Plate Reader. […] 5 replicates of each sensor-metal or sensor-complex solution were used. […] Fluorescence responses to analytes were determined using integrated emission intensity, and for each sensor a control well containing no analyte was included to normalise the response for analysis.
The sensors were tested using the procedure described in Example 4, and the obtained data was analysed using LDA. […] Sensors S1-S9 were used in subsequent experiments.

Structure (SMILES): O=S(=O)([O-])c1cc(O)c(N=Nc2c(O)ccc3ccccc23)c2ccccc12.[Na+] [S9]
- intense fluorescence in the visible range: 400-600 nm
